Measured values: US20120042409
Where a protein sequence is shown, tags need not be part of it.

Columns and labels:
Cre recombinase = target: T1, Cre recombinase (UniProt P06956); test: activity in cells; conditions: protein in cells, only the site is given
T1 sequence (looked up, limits assumed): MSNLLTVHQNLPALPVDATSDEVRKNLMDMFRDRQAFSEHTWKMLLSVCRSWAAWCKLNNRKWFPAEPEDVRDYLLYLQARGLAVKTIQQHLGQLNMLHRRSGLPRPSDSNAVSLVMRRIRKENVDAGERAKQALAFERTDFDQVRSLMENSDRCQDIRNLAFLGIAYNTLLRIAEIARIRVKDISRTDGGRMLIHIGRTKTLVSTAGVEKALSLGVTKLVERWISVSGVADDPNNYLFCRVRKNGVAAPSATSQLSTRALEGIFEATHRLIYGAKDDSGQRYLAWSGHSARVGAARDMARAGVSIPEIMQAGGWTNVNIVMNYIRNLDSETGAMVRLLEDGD

FLP recombinase = target: T2, FLP recombinase (UniProt P03870); test: activity in cells; conditions: partial recombination between two POTFRT sites in pPOTFRT2 (unrecombined fragment remained); 37 C; sequenced; protein in cells; only the site is given
T2 sequence (looked up, limits assumed): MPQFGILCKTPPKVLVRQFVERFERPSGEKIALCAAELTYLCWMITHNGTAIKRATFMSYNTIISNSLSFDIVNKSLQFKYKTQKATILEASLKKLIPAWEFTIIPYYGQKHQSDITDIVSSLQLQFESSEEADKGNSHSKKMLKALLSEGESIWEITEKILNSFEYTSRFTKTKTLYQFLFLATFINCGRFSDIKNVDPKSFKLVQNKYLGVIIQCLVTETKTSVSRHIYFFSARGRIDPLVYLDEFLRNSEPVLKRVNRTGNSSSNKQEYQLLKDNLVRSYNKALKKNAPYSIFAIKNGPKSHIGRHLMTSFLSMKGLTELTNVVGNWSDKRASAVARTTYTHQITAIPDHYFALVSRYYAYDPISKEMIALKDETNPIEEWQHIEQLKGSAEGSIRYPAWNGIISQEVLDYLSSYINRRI

CCGAATTCGTATAGCATACATTATACGAAGGCAT (double strand) [potato loxP-like site (POTLOXP)]
activity on this sequence (Cre recombinase; recombination between two POTLOXP sites in pPOTLOXP2 and Stan2 derivatives, 37 C, sequenced, base pair faithful): active

CTTCGTATAATGTATGCTATACGAA (double strand) [petunia-derived loxP site]
activity on this sequence (Cre recombinase; intramolecular recombination between two direct sites in pUC57PhMCcabDP and pUC57PhMCcabPH, 37 C induction, none at 28 C uninduced): active

TCTGTTCCTATACTTTCTAGAGAATAGGAAGTTG (double strand) [potato frt-like site (POTFRT)]
activity on this sequence (FLP recombinase): active
